Reference: PMC8726484
No constants are given. Whether binding was seen depends on the method and setting. In cells and extracts the contact can be indirect. Here binding means that the protein was enriched with, or labelled near, the bait; the list need not be complete.

Protein sequences, listed by entry. Tags and fused reporters are not part of them.
UniProt Q923J1: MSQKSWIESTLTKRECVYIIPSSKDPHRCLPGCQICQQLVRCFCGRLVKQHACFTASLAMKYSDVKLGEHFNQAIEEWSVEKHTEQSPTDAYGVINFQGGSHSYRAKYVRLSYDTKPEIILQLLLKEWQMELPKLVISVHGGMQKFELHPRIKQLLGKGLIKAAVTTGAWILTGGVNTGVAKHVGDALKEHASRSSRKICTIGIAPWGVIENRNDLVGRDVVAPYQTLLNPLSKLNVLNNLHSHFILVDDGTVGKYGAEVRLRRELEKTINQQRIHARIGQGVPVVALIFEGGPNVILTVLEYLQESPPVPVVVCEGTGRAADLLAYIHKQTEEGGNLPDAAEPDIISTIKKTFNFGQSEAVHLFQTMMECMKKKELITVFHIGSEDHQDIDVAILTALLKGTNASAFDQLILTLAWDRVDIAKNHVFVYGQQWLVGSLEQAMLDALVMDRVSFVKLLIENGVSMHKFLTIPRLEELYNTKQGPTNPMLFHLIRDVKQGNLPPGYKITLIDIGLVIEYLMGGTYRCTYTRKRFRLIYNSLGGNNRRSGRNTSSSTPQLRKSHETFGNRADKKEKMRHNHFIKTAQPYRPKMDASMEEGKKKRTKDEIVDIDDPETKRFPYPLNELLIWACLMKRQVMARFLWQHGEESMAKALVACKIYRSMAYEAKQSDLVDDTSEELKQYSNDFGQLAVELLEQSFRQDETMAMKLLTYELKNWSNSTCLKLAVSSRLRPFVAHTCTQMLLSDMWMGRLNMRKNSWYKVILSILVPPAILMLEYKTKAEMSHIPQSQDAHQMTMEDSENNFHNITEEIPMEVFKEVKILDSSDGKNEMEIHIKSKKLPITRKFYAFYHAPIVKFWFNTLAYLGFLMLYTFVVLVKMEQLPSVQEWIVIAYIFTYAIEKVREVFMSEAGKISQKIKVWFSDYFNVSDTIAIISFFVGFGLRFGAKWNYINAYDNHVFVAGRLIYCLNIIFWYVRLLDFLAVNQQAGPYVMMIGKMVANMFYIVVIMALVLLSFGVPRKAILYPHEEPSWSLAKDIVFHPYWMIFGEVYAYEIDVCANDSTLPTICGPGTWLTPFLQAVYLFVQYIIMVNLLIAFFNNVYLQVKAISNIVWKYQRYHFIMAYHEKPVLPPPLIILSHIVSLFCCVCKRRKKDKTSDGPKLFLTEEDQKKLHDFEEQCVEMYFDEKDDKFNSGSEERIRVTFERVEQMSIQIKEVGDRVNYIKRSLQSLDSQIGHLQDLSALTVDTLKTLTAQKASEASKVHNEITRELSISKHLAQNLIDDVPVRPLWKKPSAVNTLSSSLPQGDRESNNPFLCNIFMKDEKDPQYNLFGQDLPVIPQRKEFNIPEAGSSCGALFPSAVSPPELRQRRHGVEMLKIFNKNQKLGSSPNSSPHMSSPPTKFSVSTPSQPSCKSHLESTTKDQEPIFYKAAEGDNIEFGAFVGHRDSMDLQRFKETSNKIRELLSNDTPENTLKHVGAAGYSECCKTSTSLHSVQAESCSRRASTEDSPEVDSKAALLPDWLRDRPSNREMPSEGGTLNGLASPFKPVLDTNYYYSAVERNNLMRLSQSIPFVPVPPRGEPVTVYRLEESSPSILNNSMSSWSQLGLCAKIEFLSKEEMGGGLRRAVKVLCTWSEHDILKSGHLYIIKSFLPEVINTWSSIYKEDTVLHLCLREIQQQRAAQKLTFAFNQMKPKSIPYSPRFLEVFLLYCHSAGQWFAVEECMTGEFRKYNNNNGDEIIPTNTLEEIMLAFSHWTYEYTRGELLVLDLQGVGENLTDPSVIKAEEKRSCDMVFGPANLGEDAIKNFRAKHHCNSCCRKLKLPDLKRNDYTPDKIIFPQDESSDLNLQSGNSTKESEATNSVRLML

B1: ARL15, endogenous (protein, UniProt Q9NXU5 1-204)
chain: MSDLRITEAFLYMDYLCFRALCCKGPPPARPEYDLVCIGLTGSGKTSLLSKLCSESPDNVVSTTGFSIKAVPFQNAILNVKELGGADNIRKYWSRYYQGSQGVIFVLDSASSEDDLEAARNELHSALQHPQLCTLPFLILANHQDKPAARSVQEIKKYFELEPLARGKRWILQPCSLDDMDALKDSFSQLINLLEEKDHEAVRM
B2: native CNNM4 (endogenous, human cell lines) (protein, UniProt Q6P4Q7 1-775)
chain: MAPVGGGGRPVGGPARGRLLLAAPVLLVLLWALGARGQGSPQQGTIVGMRLASCNKSCGTNPDGIIFVSEGSTVNLRLYGYSLGNISSNLISFTEVDDAETLHKSTSCLELTKDLVVQQLVNVSRGNTSGVLVVLTKFLRRSESMKLYALCTRAQPDGPWLKWTDKDSLLFMVEEPGRFLPLWLHILLITVLLVLSGIFSGLNLGLMALDPMELRIVQNCGTEKERRYARKIEPIRRKGNYLLCSLLLGNVLVNTSLTILLDNLIGSGLMAVASSTIGIVIFGEILPQALCSRHGLAVGANTILLTKFFMLLTFPLSFPISKLLDFFLGQEIRTVYNREKLMEMLKVTEPYNDLVKEELNMIQGALELRTKTVEDIMTQLQDCFMIRSDAILDFNTMSEIMESGYTRIPVFEDEQSNIVDILYVKDLAFVDPDDCTPLKTITRFYNHPVHFVFHDTKLDAMLEEFKKGKSHLAIVQKVNNEGEGDPFYEVLGLVTLEDVIEEIIKSEILDESDMYTDNRSRKRVSEKNKRDFSAFKDADNELKVKISPQLLLAAHRFLATEVSQFSPSLISEKILLRLLKYPDVIQELKFDEHNKYYARHYLYTRNKPADYFILILQGKVEVEAGKENMKFETGAFSYYGTMALTSVPSDRSPAHPTPLSRSASLSYPDRTDVSTAATLAGSSNQFGSSVLGQYISDFSVRALVDLQYIKITRQQYQNGLLASRMENSPQFPIDGCTTHMENLAEKSELPVVDETTTLLNERNSLLHKASHENAI
B3: PTP4A1 (PRL-1), endogenous (protein, UniProt Q93096 1-173)
chain: MARMNRPAPVEVTYKNMRFLITHNPTNATLNKFIEELKKYGVTTIVRVCEATYDTTLVEKEGIHVLDWPFDDGAPPSNQIVDDWLSLVKIKFREEPGCCIAVHCVAGLGRAPVLVALALIEGGMKYEDAVQFIRQKRRGAFNSKQLLYLEKYRPKMRLRFKDSNGHRNNCCIQ
B4: native CNNM3 (endogenous, human cell lines) (protein, UniProt Q8NE01 1-707)
chain: MAAAVAAAGRLGWLFAALCLGNAAGEAAPGPRVLGFCLEEDGAAGAGWVRGGAARDTPDATFLLRLFGPGFANSSWSWVAPEGAGCREEAASPAGEWRALLRLRLRAEAVRPHSALLAVRVEPGGGAAEEAAPPWALGLGAAGLLALAALARGLQLSALALAPAEVQVLRESGSEAERAAARRLEPARRWAGCALGALLLLASLAQAALAVLLYRAAGQRAVPAVLGSAGLVFLVGEVVPAAVSGRWTLALAPRALGLSRLAVLLTLPVALPVGQLLELAARPGRLRERVLELARGGGDPYSDLSKGVLRCRTVEDVLTPLEDCFMLDASTVLDFGVLASIMQSGHTRIPVYEEERSNIVDMLYLKDLAFVDPEDCTPLSTITRFYNHPLHFVFNDTKLDAVLEEFKRGKSHLAIVQKVNNEGEGDPFYEVLGLVTLEDVIEEIIRSEILDESEDYRDTVVKRKPASLMAPLKRKEEFSLFKVSDDEYKVTISPQLLLATQRFLSREVDVFSPLRISEKVLLHLLKHPSVNQEVRFDESNRLATHHYLYQRSQPVDYFILILQGRVEVEIGKEGLKFENGAFTYYGVSALTVPSSVHQSPVSSLQPIRHDLQPDPGDGTHSSAYCPDYTVRALSDLQLIKVTRLQYLNALLATRAQNLPQSPENTDLQVIPGSQTRLLGEKTTTAAGSSHSRPGVPVEGSPGRNPGV

target: FLAG-tagged mouse TRPM7 of the LTRPC7 cell line (293-TRPM7 cells) (mouse) (UniProt Q923J1); experiment: affinity purification with mass spectrometry; FLAG-TRPM7 immunoprecipitated overnight with M2 FLAG-agarose from LTRPC7 cells grown without tetracycline; lysis buffer 50 mM TRIS (pH 7.4), 150 mM NaCl, 1% Igepal 630; washed with PBS with 1% Tween-20; HEK-293T cells as negative control; 2 biological replicates

| binding | Binder |
| --- | --- |
| binds | B1 |
| binds | B2 |
| binds | B3 |
| binds | B4 |
